B1: Carboxypeptidase M (protein, UniProt P14384 18-423, looked up)
Carboxypeptidase M: LDFNYHRQEGMEAFLKTVAQNYSSVTHLHSIGKSVKGRNLWVLVVGRFPKEHRIGIPEFKYVANMHGDETVGRELLLHLIDYLVTSDGKDPEITNLINSTRIHIMPSMNPDGFEAVKKPDCYYSIGRENYNQYDLNRNFPDAFEYNNVSRQPETVAVMKWLKTETFVLSANLHGGALVASYPFDNGVQATGALYSRSLTPDDDVFQYLAHTYASRNPNMKKGDECKNKMNFPNGVTNGYSWYPLQGGMQDYNYIWAQCFEITLELSCCKYPREEKLPSFWNNNKASLIEYIKQVHLGVKGQVFDQNGNPLPNVIVEVQDRKHICPYRTNKYGEYYLLLLPGSYIINVTVPGHDPHITKVIIPEKSQNFSALKKDILLPFQGQLDSIPVSNPSCPMIPLYRNLPDHS
B2: Cytoskeleton-associated protein 4 (protein, UniProt Q07065 1-602, looked up)
Cytoskeleton-associated …: MPSAKQRGSKGGHGAASPSEKGAHPSGGADDVAKKPPPAPQQPPPPPAPHPQQHPQQHPQNQAHGKGGHRGGGGGGGKSSSSSSASAAAAAAAASSSASCSRRLGRALNFLFYLALVAAAAFSGWCVHHVLEEVQQVRRSHQDFSRQREELGQGLQGVEQKVQSLQATFGTFESILRSSQHKQDLTEKAVKQGESEVSRISEVLQKLQNEILKDLSDGIHVVKDARERDFTSLENTVEERLTELTKSINDNIAIFTEVQKRSQKEINDMKAKVASLEESEGNKQDLKALKEAVKEIQTSAKSREWDMEALRSTLQTMESDIYTEVRELVSLKQEQQAFKEAADTERLALQALTEKLLRSEESVSRLPEEIRRLEEELRQLKSDSHGPKEDGGFRHSEAFEALQQKSQGLDSRLQHVEDGVLSMQVASARQTESLESLLSKSQEHEQRLAALQGRLEGLGSSEADQDGLASTVRSLGETQLVLYGDVEELKRSVGELPSTVESLQKVQEQVHTLLSQDQAQAARLPPQDFLDRLSSLDNLKASVSQVEADLKMLRTAVDSLVAYSVKIETNENNLESAKGLLDDLRNDLDRLFVKVEKIHEKV
B3: Neprilysin (protein, UniProt P08473 2-750, looked up)
Neprilysin: GKSESQMDITDINTPKPKKKQRWTPLEISLSVLVLLLTIIAVTMIALYATYDDGICKSSDCIKSAARLIQNMDATTEPCTDFFKYACGGWLKRNVIPETSSRYGNFDILRDELEVVLKDVLQEPKTEDIVAVQKAKALYRSCINESAIDSRGGEPLLKLLPDIYGWPVATENWEQKYGASWTAEKAIAQLNSKYGKKVLINLFVGTDDKNSVNHVIHIDQPRLGLPSRDYYECTGIYKEACTAYVDFMISVARLIRQEERLPIDENQLALEMNKVMELEKEIANATAKPEDRNDPMLLYNKMTLAQIQNNFSLEINGKPFSWLNFTNEIMSTVNISITNEEDVVVYAPEYLTKLKPILTKYSARDLQNLMSWRFIMDLVSSLSRTYKESRNAFRKALYGTTSETATWRRCANYVNGNMENAVGRLYVEAAFAGESKHVVEDLIAQIREVFIQTLDDLTWMDAETKKRAEEKALAIKERIGYPDDIVSNDNKLNNEYLELNYKEDEYFENIIQNLKFSQSKQLKKLREKVDKDEWISGAAVVNAFYSSGRNQIVFPAGILQPPFFSAQQSNSLNYGGIGMVIGHEITHGFDDNGRNFNKDGDLVDWWTQQSASNFKEQSQCMVYQYGNFSWDLAGGQHLNGINTLGENIADNGGLGQAYRAYQNYIKKNGEEKLLPGLDLNHKQLFFLNFAQVWCGTYRPEYAVNSIKTDVHSPGNFRIIGTLQNSAEFSEAFHCRKNSYMNPEKKCRVW
B4: Podocalyxin (protein, UniProt O00592 23-558, looked up)
Podocalyxin: SPSPSPSPSQNATQTTTDSSNKTAPTPASSVTIMATDTAQQSTVPTSKANEILASVKATTLGVSSDSPGTTTLAQQVSGPVNTTVARGGGSGNPTTTIESPKSTKSADTTTVATSTATAKPNTTSSQNGAEDTTNSGGKSSHSVTTDLTSTKAEHLTTPHPTSPLSPRQPTSTHPVATPTSSGHDHLMKISSSSSTVAIPGYTFTSPGMTTTLLETVFHHVSQAGLELLTSGDLPTLASQSAGITASSVISQRTQQTSSQMPASSTAPSSQETVQPTSPATALRTPTLPETMSSSPTAASTTHRYPKTPSPTVAHESNWAKCEDLETQTQSEKQLVLNLTGNTLCAGGASDEKLISLICRAVKATFNPAQDKCGIRLASVPGSQTVVVKEITIHTKLPAKDVYERLKDKWDELKEAGVSDMKLGDQGPPEEAEDRFSMPLIITIVCMASFLLLVAALYGCCHQRLSQRKDQQRLTEELQTVENGYHDNPTLEVMETSSEMQEKKVVSLNGELGDSWIVPLDNLTKDDLDEEEDTHL

The molecules below were run on human endometrial epithelial cells (HEECs) (assay: LC-MS/MS analysis of plasma membrane-enriched proteins of HEECs). Conditions: sample 1, proliferative phase.

Molecule | Total unique peptides, Samples 1
B1 | 2
B2 | 3
B3 | 3
B4 | 1

Same assay, conditions: sample 2, proliferative phase

Molecule | Total unique peptides, Samples 2
B1 | 5
B2 | 2
B3 | 4
B4 | 1

Same assay, conditions: sample 3, proliferative phase

Molecule | Total unique peptides, Samples 3
B1 | 2
B2 | 5
B3 | 1
B4 | 3

— US20220268780A1, “METHODS OF PREDICTING ENDOMETRIAL RECEPTIVITY” (HUDSON INSTITUTE OF MEDICAL RESEARCH, priority 2019, published 2022)
